Values of other authors as cited in patent publication US11798661B2, “Methods for lowering blood pressure with a dihydropyridine-type calcium channel blocker pharmaceutical composition” (A[…] Limited, priority 2018, dated 2023).

Settings: co-administration with grapefruit juice

COC(=O)C1=C(C)NC(C)=C(C(=O)OC)C1c1ccccc1[N+](=O)[O-] [nifedipine, 3,5-dimethyl 2,6-dimethyl-4-(2-nitrophenyl)-1,4-dihydropyridine-3,5-dicarboxylate]
change in area under the curve of blood concentration versus time (AUC): approximately a doubling
